HELM strings list residues between dots; [ac] is acetyl, [am] amide, other brackets name non-standard units.
What was measured:
[1] = general procedure: Fmoc solid-phase peptide synthesis; HMP resin; details: whole synthesis, TFA salt
[2] = general procedure: Fmoc solid-phase peptide synthesis; HMP resin (Applied Biosystem); details: whole synthesis, TFA salt

Substance	final purity (method not given) [1]	final purity (method not given) [2]
PEPTIDE1{L.K.K.L.L.K.K.L.L.K.K.L.L.K.K.L.L.K.K.L.L.K.K.L.L.K.K.L.L.K.K.L.L.K.K.L.L.K.K.L}$$$$V2.0	greater than 95%	
PEPTIDE1{L.K.L.K.L.K.L.K.L.K.L.K.L.K.L.K.L.K.L.K.L.K.L.K.L.K.L.K.L.K.L.K.L.K.L.K.L.K.L.K}$$$$V2.0		greater than 90%

From patent US5856435A (Rhone-Poulenc Rorer SA, priority 1994, dated 1999)
